# Laboratory results published in publication PMC5996148.
# Values joined by “and” are separate entries in the source; they are usually repeats but may differ in a detail not shown here. Equal values may be shown once. Some of the results follow.
# Experiments:
# Experiment in all cases: protein microarray (ProtoArray v5.0), streptavidin-Alexa Fluor 647
# Conditions in all cases: 3'-biotin; 20 mM Tris (pH 7.5), 5 mM MgCl2, 100 mM KCl, 0.1% Tween-20, A/T-rich and random oligonucleotide blockers; temperature not stated; high values mean tight binding
# KIAA0513 (human) = test system: KIAA0513 (human)
# KIAA0562 (human) = test system: KIAA0562 (human)
# KIAA0652 (human) = test system: KIAA0652 (human)
# KIAA1576 (human) = test system: KIAA1576 (human)
# KIAA1598 (human) = test system: KIAA1598 (human)
# KIAA1609 (human) = test system: KIAA1609 (human)
# KIAA1754 (human) = test system: KIAA1754 (human)
# KIF6 (human) = test system: KIF6 (human)
# KIFC3 (human) = test system: KIFC3 (human)
# KIR2DL3 (human) = test system: KIR2DL3 (human)
sequence,measurement,setting,value
GGGAGGCTGAGGCAGG [G4-1 biotinylated (PQS2)],binding signal,KIAA0513 (human),-0.338 z-score
same,binding signal,KIAA0562 (human),-0.333 z-score
same,binding signal,KIAA0652 (human),-0.315 z-score and -0.289 z-score
same,binding signal,KIAA1576 (human),-0.349 z-score
same,binding signal,KIAA1598 (human),-0.351 z-score
same,binding signal,KIAA1609 (human),-0.335 z-score
same,binding signal,KIAA1754 (human),-0.333 z-score
same,binding signal,KIF6 (human),-0.306 z-score
same,binding signal,KIFC3 (human),-0.314 z-score
same,binding signal,KIR2DL3 (human),-0.342 z-score
